Test results as given in US9517222B2, “Method for the treatment of senile dementia of the Alzheimer's type” (Phenomenome Discoveries Inc., priority 2007, dated 2016).
Some values come without a unit; they compare only within their column.

Key:
[1] = Serum ethanolamine phospholipid levels in human cohorts (dementia severity, post-mortem pathology, age) by flow-injection MS/MS
[2] = Serum ethanolamine phospholipid ratios to PtdEt 16:0/18:0 (M01) in human cohorts
[3] = serum, females, post mortem SDAT
[4] = serum, females, post mortem control

## CCCCCCCC/C=C\CCCCCCCC(=O)OC(COCCCCCCCCCCCCCCCCCC)COP(=O)(O)OCCN (centres unmarked) [Metabolite M10, Plasmanyl 18:0/18:1]
[1]; AD, All to CN, Male
  Ratio of serum levels: 0.960
[1]; ADAS 5-19 to CN, Male
  Ratio of serum levels: 0.978
[1]; ADAS 20-39 to 5-19, Male
  Ratio of serum levels: 0.963
[1]; ADAS 20-39 to CN, Male
  Ratio of serum levels: 0.942
[1]; ADAS 40-70 to 5-19, Male
  Ratio of serum levels: 0.897
[1]; ADAS 40-70 to 20-39, Male
  Ratio of serum levels: 0.932
[1]; ADAS 40-70 to CN, Male
  Ratio of serum levels: 0.877
[1]; Cognitive Normal, Female
  Serum level, Mean: 0.054
[1]; Cognitive Normal, Male
  Average serum level, Mean: 0.054
[1]; Post Mortem Ctl, Male
  Serum level, Mean: 0.041
[1]; Post Mortem SDAT Male
  Serum level, Mean: 0.036
[1]; Post mortem SDAT vs Control, Male
  Ratio of serum levels: 0.608
[1]; SDAT, ADAS 5-19, Female
  Serum level, Mean: 0.049
[1]; SDAT, ADAS 5-19, Male
  Average serum level, Mean: 0.053
[1]; SDAT, ADAS 20-39, Female
  Serum level, Mean: 0.047
[1]; SDAT, ADAS 20-39, Male
  Average serum level, Mean: 0.051
[1]; SDAT, ADAS 40-70, Female
  Serum level, Mean: 0.048
[1]; SDAT, ADAS 40-70, Male
  Average serum level, Mean: 0.047
[1]; SDAT_all, Female
  Serum level, Mean: 0.048
[1]; SDAT_all, Male
  Average serum level, Mean: 0.052
[1]; serum level ratio, females, ADAS 5-19 vs CN
  Ratio, ADAS 5-19 to CN, Female: 0.895
[1]; serum level ratio, females, ADAS 20-39 vs ADAS 5-19
  Ratio, ADAS 20-39 to 5-19, Female: 0.961
[1]; serum level ratio, females, ADAS 20-39 vs CN
  Ratio, ADAS 20-39 to CN, Female: 0.860
[1]; serum level ratio, females, ADAS 40-70 vs ADAS 5-19
  Ratio, ADAS 40-70 to 5-19, Female: 0.987
[1]; serum level ratio, females, ADAS 40-70 vs ADAS 20-39
  Ratio, ADAS 40-70 to 20-39, Female: 1.027
[1]; serum level ratio, females, ADAS 40-70 vs CN
  Ratio, ADAS 40-70 to CN, Female: 0.883
[1]; serum level ratio, females, age 50-59 vs 40-49
  Ratio, 50-59 vs. 40-49, Female: 0.841
[1]; serum level ratio, females, age 60-69 vs 40-49
  Ratio, 60-69 vs. 40-49, Female: 0.882
[1]; serum level ratio, females, age 70+ vs 40-49
  Ratio, 70+ vs. 40-49, Female: 0.863
[1]; serum level ratio, females, all AD vs cognitively normal
  Ratio, AD, All to CN, Female: 0.877
[1]; serum level ratio, females, autopsy AD vs control
  Ratio, Autopsy AD vs. Control, Female: 0.672
[1]; serum level ratio, males, age 50-59 vs 40-49
  Ratio, 50-59 vs. 40-49, Male: 0.953
[1]; serum level ratio, males, age 60-69 vs 40-49
  Ratio, 60-69 vs. 40-49, Male: 1.061
[1]; serum level ratio, males, age 70+ vs 40-49
  Ratio, 70+ vs. 40-49, Male: 1.013
[1]; serum, females, age 30-39
  Mean serum level, Age Ctl, 30-39, Female: 0.050
[1]; serum, females, age 40-49
  Mean serum level, Age Ctl, 40-49, Female: 0.059
[1]; serum, females, age 50-59
  Mean serum level, Age Ctl, 50-59, Female: 0.049
[1]; serum, females, age 60-69
  Mean serum level, Age Ctl, 60-69, Female: 0.052
[1]; serum, females, age 70+
  Mean serum level, Age Ctl, 70+, Female: 0.051
[1]; [3]
  Mean serum level, Post Mortem SDAT, Female: 0.025
[1]; [4]
  Mean serum level, Post Mortem Ctl, Female: 0.053
[1]; serum, males, age 30-39
  Mean serum level, Age Ctl, 30-39, Male: 0.058
[1]; serum, males, age 40-49
  Mean serum level, Age Ctl, 40-49, Male: 0.052
[1]; serum, males, age 50-59
  Mean serum level, Age Ctl, 50-59, Male: 0.049
[1]; serum, males, age 60-69
  Mean serum level, Age Ctl, 60-69, Male: 0.055
[1]; serum, males, age 70+
  Mean serum level, Age Ctl, 70+, Male: 0.053
[2]; AD, All to CN, Male
  Ratio of ethanolamine phospholipid ratios to M01 between cohorts: 0.910
[2]; ADAS 5-19 to CN, Male
  Ratio of ethanolamine phospholipid ratios to M01 between cohorts: 0.932
[2]; ADAS 20-39 to CN, Male
  Ratio of ethanolamine phospholipid ratios to M01 between cohorts: 0.913
[2]; ADAS 40-70 to CN, Male
  Ratio of ethanolamine phospholipid ratios to M01 between cohorts: 0.843
[2]; Cognitive Normal, Male, serum
  Average serum ethanolamine phospholipid ratio to M01, Mean: 0.483
[2]; SDAT, ADAS 5-19, Male, serum
  Average serum ethanolamine phospholipid ratio to M01, Mean: 0.450
[2]; SDAT, ADAS 20-39, Male, serum
  Average serum ethanolamine phospholipid ratio to M01, Mean: 0.441
[2]; SDAT, ADAS 40-70, Male, serum
  Average serum ethanolamine phospholipid ratio to M01, Mean: 0.408
[2]; SDAT_all, Male, serum
  Average serum ethanolamine phospholipid ratio to M01, Mean: 0.440
[2]; human serum, females aged 30-39
  Ethanolamine Phospholipid Ratio to M01, Mean, Age Ctl, 30-39, Female: 0.491
[2]; human serum, females aged 40-49
  Ethanolamine Phospholipid Ratio to M01, Mean, Age Ctl, 40-49, Female: 0.535
[2]; human serum, females aged 50-59
  Ethanolamine Phospholipid Ratio to M01, Mean, Age Ctl, 50-59, Female: 0.490
[2]; human serum, females aged 50-59 vs. females aged 40-49
  Ratio of Ethanolamine Phospholipid Ratio to M01, 50-59 vs. 40-49, Female: 0.917
[2]; human serum, females aged 60-69
  Ethanolamine Phospholipid Ratio to M01, Mean, Age Ctl, 60-69, Female: 0.424
[2]; human serum, females aged 60-69 vs. females aged 40-49
  Ratio of Ethanolamine Phospholipid Ratio to M01, 60-69 vs. 40-49, Female: 0.792
[2]; human serum, females aged 70+
  Ethanolamine Phospholipid Ratio to M01, Mean, Age Ctl, 70+_Female: 0.422
[2]; human serum, females aged 70+ vs. females aged 40-49
  Ratio of Ethanolamine Phospholipid Ratio to M01, 70+ vs. 40-49, Female: 0.789
[2]; human serum, males aged 50-59 vs. males aged 40-49
  Ratio of Ethanolamine Phospholipid Ratio to M01, 50-59 vs. 40-49, Male: 0.981
[2]; human serum, males aged 60-69 vs. males aged 40-49
  Ratio of Ethanolamine Phospholipid Ratio to M01, 60-69 vs. 40-49, Male: 0.924
[2]; human serum, males aged 70+ vs. males aged 40-49
  Ratio of Ethanolamine Phospholipid Ratio to M01, 70+ vs. 40-49, Male: 0.896
[2]; serum, females, ADAS 5-19 vs cognitive normal
  Ratio of ethanolamine phospholipid ratio to M01, ADAS 5-19 to CN, Female: 0.963
[2]; serum, females, ADAS 20-39 vs ADAS 5-19
  Ratio of ethanolamine phospholipid ratio to M01, ADAS 20-39 to 5-19, Female: 0.948
[2]; serum, females, ADAS 20-39 vs cognitive normal
  Ratio of ethanolamine phospholipid ratio to M01, ADAS 20-39 to CN, Female: 0.913
[2]; serum, females, ADAS 40-70 vs ADAS 5-19
  Ratio of ethanolamine phospholipid ratio to M01, ADAS 40-70 to 5-19, Female: 0.926
[2]; serum, females, ADAS 40-70 vs ADAS 20-39
  Ratio of ethanolamine phospholipid ratio to M01, ADAS 40-70 to 20-39, Female: 0.977
[2]; serum, females, ADAS 40-70 vs cognitive normal
  Ratio of ethanolamine phospholipid ratio to M01, ADAS 40-70 to CN, Female: 0.892
[2]; serum, females, SDAT ADAS 5-19
  Ethanolamine phospholipid ratio to M01, Mean, SDAT, ADAS 5-19, Female: 0.451
[2]; serum, females, SDAT ADAS 20-39
  Ethanolamine phospholipid ratio to M01, Mean, SDAT, ADAS 20-39, Female: 0.428
[2]; serum, females, SDAT ADAS 40-70
  Ethanolamine phospholipid ratio to M01, Mean, SDAT, ADAS 40-70, Female: 0.418
[2]; serum, females, all AD vs cognitive normal
  Ratio of ethanolamine phospholipid ratio to M01, AD, All to CN, Female: 0.919
[2]; serum, females, all SDAT
  Ethanolamine phospholipid ratio to M01, Mean, SDAT_all Female: 0.431
[2]; serum, females, autopsy AD vs post mortem control
  Ratio of ethanolamine phospholipid ratio to M01, Autopsy AD vs. Control, Female: 1.003
[2]; serum, females, cognitive normal
  Ethanolamine phospholipid ratio to M01, Mean, Cognitive Normal, Female: 0.469
[2]; [3]
  Ethanolamine phospholipid ratio to M01, Mean, Post Mortem SDAT Female: 0.291
[2]; [4]
  Ethanolamine phospholipid ratio to M01, Mean, Post Mortem Ctl, Female: 0.290
[2]; serum, males, SDAT ADAS 20-39 vs ADAS 5-19
  Ratio of ethanolamine phospholipid ratio to M01, ADAS 20-39 to 5-19, Male: 0.980
[2]; serum, males, SDAT ADAS 40-70 vs ADAS 5-19
  Ratio of ethanolamine phospholipid ratio to M01, ADAS 40-70 to 5-19, Male: 0.905
[2]; serum, males, SDAT ADAS 40-70 vs ADAS 20-39
  Ratio of ethanolamine phospholipid ratio to M01, ADAS 40-70 to 20-39, Male: 0.923
[2]; serum, males, age control 30-39
  Ethanolamine phospholipid ratio to M01, Mean, Age Ctl, 30-39, Male: 0.464
[2]; serum, males, age control 40-49
  Ethanolamine phospholipid ratio to M01, Mean, Age Ctl, 40-49, Male: 0.454
[2]; serum, males, age control 50-59
  Ethanolamine phospholipid ratio to M01, Mean, Age Ctl, 50-59, Male: 0.445
[2]; serum, males, age control 60-69
  Ethanolamine phospholipid ratio to M01, Mean, Age Ctl, 60-69, Male: 0.419
[2]; serum, males, age control 70+
  Ethanolamine phospholipid ratio to M01, Mean, Age Ctl, 70+_Male: 0.407
[2]; serum, males, post mortem SDAT
  Ethanolamine phospholipid ratio to M01, Mean, Post Mortem SDAT Male: 0.269
[2]; serum, males, post mortem SDAT vs post mortem control
  Ratio of ethanolamine phospholipid ratio to M01, SDAT vs Control (post mortem, males): 0.798
[2]; serum, males, post mortem control
  Ethanolamine phospholipid ratio to M01, Mean, Post Mortem Ctl, Male: 0.337
